Measured values reported in patent publication US7816560B1, “Long chain n-alkyl compounds and oxa-derivatives thereof” (Thomas Jefferson University, priority 1999, dated 2010).
For at least one compound, name, drawing or mass did not settle the structure.

Test system: HBV
Test: Intracellular HBV DNA in HepG2.2.15 cells by Southern blot
Format: cell-based, hepatitis B virus
Conditions: seven days, 3TC 1 μg/ml, NB-DNJ 1000 μg/ml, NN-DNJ and NN-DGJ 2 or 20 μg/ml
Protocol: Intracellular DNA analysis: Hep G2.2.15 cells were either left untreated or treated with the compounds listed above for seven days and the total DNA extracted as described (Mehta et al., ibid). DNA (20 μg) was digested with HindIII, resolved through a 1.2% agarose gel and transferred to nylon membranes. Membranes were then hybridized with a ^32P labeled probe containing the total HBV genome and developed as described (Lu et al., Proc. Natl. Acad. Sci. USA 94:2380-2385, 1997). The relaxed circular (rc), linear (lin), and closed circular (CCC) DNA were confirmed by enzymatic digestion.
An infected cell contains several forms of HBV DNA which represent different stages in the HBV life cycle. For example, covalently closed circular DNA (CCC DNA) is the nuclear form of the DNA and is thought to be the viral template (Heermann & Gerlich, 1992). In contrast, the relaxed circular DNA (re DNA) and linear forms (lin) are associated with the viral particle and their presence is an indicator of encapsidation of the viral pre-genomic RNA and the subsequent reverse transcription into progeny DNA (Ganem, Curr. Top. Microbiol. Immunol. 168:61-83, 1991). […] The amount of virus associated with the cells was detected seven days later by Southern blot analysis. […]

## Nc1ccn([C@@H]2CS[C@H](CO)O2)c(=O)n1 [3TC, reference compound]
  Effect on intracellular HBV DNA: complete disappearance of intracellular HBV
